# The whole screen tested about 1,100 compounds, of which fewer than 10 were called active. About 6% were inconclusive and are not listed. Calls come from the whole dose curve; as a rule, active = well fitted cell-killing curve with a large enough effect; inconclusive = small, poorly fitted or top-dose-only effect; inactive = flat fitted curve, though single readings scatter. Some of the results follow.
# Test: qHTS of Nrf2 Activators: Hit Validation in Cytotox Assay;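 note: compound exposure lasted 24 hours before the ATP readout; 0% is about no effect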
# Settings: Cell viability counter-screen for Nrf2 activator hits; series mostly up to 46.1 µM; activity change, negative = cytotoxicity: at the top concentration
# Outline: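 AREc32_fluc cells plated overnight, then treated at 7 concentrations for 24 h at 37 °C. Viability from intracellular ATP by CellTiter-Glo luminescence after 30 min at room temperature; cytotoxic compounds flagged active.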
row,SMILES,"activity change, negative = cytotoxicity"
1,COC(=O)c1cc(=O)nc(NN=Cc2ccco2)s1,inactive: 7.72%
2,O=C(CN1CCN(Cc2ccccc2)CC1)N/N=C\C=C/c1ccco1,inactive: 9.57%
3,Cc1ccc2nc(N(CCN(C)C)C(=O)/C=C/c3cccs3)sc2c1,inactive: 0.0568%
4,COC(=O)/C=C1/S/C(=N/N=C/c2ccco2)NC1=O,inactive: 6.89%
5,Cc1nc2sc(C(=O)c3ccccc3)c(N)c2c2c1CCCC2,inactive: -22.1%
6,CCN(CC)CCNC(=O)C(Cl)=C1C(Cl)=C(Cl)C(Cl)=C1Cl,inactive: -19%
7,CC1(C)C(=O)OC(/C=C/c2cccc([N+](=O)[O-])c2)C(C)(C)C1=O (stereo not given),inactive: -2.42%
8,[O-][n+]1onc2c1CCc1c-2nn(-c2ccccc2Cl)[n+]1[O-],inactive: -4.64%
9,COc1cc(Br)cc(/C=C/c2ccc3cccc(O)c3n2)c1OC,inactive: -12.5%
10,O=C(Nc1ccccn1)c1csc2c1CCCC2,inactive: -2.81%
11,Cc1cccc(C(=O)Nc2nnc(SCC(=O)NCc3ccco3)s2)c1,inactive: 6.95%
12,CCc1nnc(NC(=O)/C=C/c2ccco2)s1,inactive: 4.65%
13,COCCN(C(=O)c1ccco1)c1nc(-c2ccccc2)cs1,inactive: 2.5%
14,O=C(Nc1cccc(F)c1)c1ccco1,inactive: -0.254%
15,O=C(Nc1ncc2c(n1)CC(c1ccco1)CC2=O)c1ccc(Cl)cc1 (stereo not given),inactive: 0.116%
16,O=C(Nc1ccccn1)Nc1ccccc1Cl,inactive: 6.29%
17,Cc1cccn2c(=O)c(C=NCCO)c(NCc3ccco3)nc12,inactive: -1.18%
18,O=C(Nc1cc(-c2nc3ncccc3o2)ccc1Cl)c1ccco1,inactive: 11%
19,COc1ccc(S(=O)(=O)NCCc2csc3nc(-c4ccc(Cl)cc4)nn23)cc1C,inactive: -1.61%
20,O=C(Nc1nc(-c2ccncc2)cs1)c1ccco1,inactive: 5.1%
21,Cc1ccc2oc(-c3cccc(NC(=O)c4ccc(Br)o4)c3)nc2c1,inactive: -1.91%
22,NC(=O)c1oc2ccccc2c1NC(=O)c1ccco1,inactive: -0.897%
23,O=[N+]([O-])c1cccc2ccc(/C=C/c3ccc(Cl)cc3)nc12,inactive: 3.46%
24,Oc1ccccc1C=NN=Cc1c(O)ccc2ccccc12,inactive: 3.64%

row,SMILES,"activity change, negative = cytotoxicity"
1,O=C(NNC(=O)c1nc(Cl)ccc1Cl)c1ccc(F)cc1,inactive: -0.0003%
2,O=C(N/N=C/c1c(O)ccc2ccccc12)Nc1ccccc1,inactive: -22.3%
3,COc1cccc(-c2nc(-c3ccccc3)no2)c1,inactive: -1.56%
4,C1=C(c2ccc(-c3ccccc3)cc2)Nc2ncnn2C1c1ccco1 (stereo not given),inactive: 1.19%
5,CCSc1nc2ccccc2n1C(=O)/C=C/c1ccc(OC)c(OC)c1,inactive: 3.11%
6,Nc1nc(/C=C/c2ccc(F)cc2)nc(-c2ccccc2O)n1,inactive: -0.794%
7,CC(C)(C)C(=O)/C=c1\[nH]c(=O)/c(=C\c2ccccc2F)s1,inactive: -4.15%
8,NC(=S)NN=C1CSSC1,inactive: -21.6%
9,O=C(NC(=S)Nc1ccccc1F)c1ccc(Br)o1,inactive: -1.15%
10,Cc1ccc(O)c(NC(=O)c2cc([N+](=O)[O-])ccc2Cl)c1,inactive: 7.76%
11,CC(=O)c1cc2c(cc1NC(=O)c1ccco1)OCCO2,inactive: 4.77%
12,CS(=O)(=O)c1nc(S(=O)(=O)c2ccc(Cl)cc2)c(N2CCC3(CC2)OCCO3)s1,inactive: 12%
13,COc1ccccc1C=Cc1ccnc2ccccc12,inactive: 1.67%
14,COc1ccc2c(c1)Cc1c-2cc(Br)c(N)c1Br,inactive: 5.21%
15,COC(=O)c1ccc(Cl)cc1NC(=O)/C=C/c1ccc(C)o1,inactive: -9.18%
16,CCOc1cc(C=O)cc(N=Nc2cccc([N+](=O)[O-])c2)c1O,inactive: -5.76%
17,CC(OC(=O)/C=C/c1ccc2ccccc2n1)C(=O)Nc1ccc(S(N)(=O)=O)cc1 (stereo not given),inactive: 11.4%
18,c1ccc(N=Nc2cn[nH]c2-c2ccco2)cc1,inactive: 6.32%
19,O=C(Nc1cccc2nsnc12)c1cccs1,inactive: 6.37%
20,O=c1oc2ccccc2cc1-c1nc2c(s1)CCc1ccccc1-2,inactive: 5.99%
21,O=C(O)/C=C/C(=O)c1c(-c2ccccc2)[nH]c2ccccc12,inactive: 4.85%
22,O=C(NNC(=O)c1sccc1-n1cccc1)c1cccc(Cl)c1,inactive: 3.63%
23,NC(=O)c1c(NC(=O)c2ccco2)sc2c1CCC2,inactive: 1.87%
24,O=[N+]([O-])c1ccc(NN=Cc2ccco2)nc1,inactive: 10.9%

row,SMILES,"activity change, negative = cytotoxicity"
1,Nc1ccc2c(c1)Cc1c(F)cccc1-2,inactive: 6.2%
2,CCn1c(SCC(=O)N/N=C/C=C\c2ccco2)nc2ccccc21,inactive: 7.4%
3,N/C(=N\OC(=O)c1cc(Cl)ccc1Cl)c1ccncc1,inactive: 5.08%
4,Cc1csc2c(=O)sc(NC(=O)c3cccs3)nc12,inactive: 2.33%
5,Clc1cccc(Cc2c(-c3ccco3)nc3c4ccccc4ccn23)c1,inactive: -6.06%
6,CC1CCN(CC2C(=O)O[C@@H]3C[C@@]4(C)CCC[C@H](C)C4=C[C@H]23)CC(C)(C)C1 (stereo not given in full),inactive: 10.7%
7,N#Cc1c(-c2ccco2)cc(-c2ccccc2)[nH]c1=O,inactive: 6.52%
8,CSc1nc2sc3c(c2c(=O)n1C)CCC(C)C3 (stereo not given),inactive: 9.91%
9,Cc1ccccc1CS(=O)(=O)c1cnc2ccccc2n1,inactive: 5.47%
10,O=C1S/C(=C\C=C\c2ccco2)C(=O)N1c1ccccc1,inactive: -1.34%
11,O=C(Nc1cccc(NC(=O)c2cccc(Cl)c2)c1)c1cccnc1,inactive: 0.671%
12,Cc1cccn2c(=O)c3cc(C#N)c(=O)n(-c4nnc(SCc5ccc(Cl)cc5)s4)c3nc12,inactive: 7.55%
13,Cc1csc2nc(NC(=O)c3ccccc3)sc(=O)c12,inactive: -4.84%
14,CCn1c(=NC(=O)c2ccco2)sc2cccc(F)c21,inactive: -1.54%
15,Cc1nc(Nc2ccccc2F)c2oc3ccccc3c2n1,inactive: 5.5%
16,Cc1nc2nc(-c3ccccc3)nn2c(C)c1Cl,inactive: -0.716%
17,Cn1c(=O)n(CCc2ccccc2)c(=O)c2c1nc1n2CCN1Cc1ccco1,inactive: -3.58%
18,O=C1C(=Cc2cccc(F)c2)Cc2ccccc21,inactive: -20%
19,COc1ccc(Cl)cc1NC(=O)CCS(=O)(=O)c1cccc2nonc12,inactive: 2.97%
20,O=C(CSc1nc2ccccc2s1)N/N=C/c1ccco1,inactive: 1.88%
21,Cn1c(N)c(C(=O)COC(=O)c2nc(Cl)ccc2Cl)c(=O)n(C)c1=O,inactive: -0.715%
22,Cc1ccc(/C=C/C(=O)Nc2ccc([N+](=O)[O-])c(NC(=O)/C=C/c3ccc(C)o3)c2)o1,inactive: -0.336%
23,Cc1cc(C)c(C#N)c(OCC(=O)c2ccccc2)n1,inactive: 0.241%
24,Cc1nnc2n1N=CC=C(c1ccccc1)S2,inactive: 24.6%

row,SMILES,"activity change, negative = cytotoxicity"
1,Cc1ccc(-c2cc(-c3cccc(F)c3)n[nH]2)c(O)c1,inactive: -26.4%
2,N#Cc1nc(-c2ccc(F)cc2)oc1NCc1ccco1,inactive: 4.54%
3,O=C(Nc1nc2ccccc2[nH]1)c1ccc(Cl)c([N+](=O)[O-])c1,inactive: 1.45%
4,O=C(/C=C/c1ccccc1)Nc1nc(-c2cccs2)ns1,inactive: -17.8%
5,Cc1cc(C)c(C#N)c(OCC(=O)c2ccc(Br)cc2)n1,inactive: -7.99%
6,N#C/C(=C\c1ccccc1)c1ccccn1,inactive: -2.49%
7,O=c1cc(-c2ccccc2)nc2c(Cl)cc(Cl)cn12,inactive: 9.44%
8,Cn1c(=O)c2nc(NCc3ccccc3)sc2n(C)c1=O,inactive: 8.23%
9,COC(=O)c1ccc2nc(-c3cccc(Br)c3)c(CC3CCCCC3)n2c1,inactive: -3.47%
10,N#C/C(=C\C=C\c1ccccc1)C(=O)NCc1cccnc1,inactive: -5.37%
11,COC(=O)c1ccc2nc(-c3ccco3)c(Cc3ccccc3)n2c1,inactive: 0.341%
12,O=C(Nc1nccs1)c1cc(-c2ccco2)nc2ccccc12,inactive: 7.68%
13,Clc1nc(NCc2ccco2)nc(N2CCCCC2)n1,inactive: -0.83%
14,O=[N+]([O-])c1cccc(-c2nc(-c3ccccn3)no2)c1,inactive: -5.21%
15,O=C1NC(=Nc2ccccc2)S/C1=C\c1ccccc1,inactive: 5.24%
16,COc1ccc(OC)c(/C=C2\SC(=S)N(Cc3cccnc3)C2=O)c1,inactive: 6.18%
17,O=C1Nc2cccnc2N(C(=O)CCl)c2ccccc21,inactive: 27.6%
18,O=C(/C=C/c1ccco1)Nc1ccc(-c2nc3ccccc3[nH]2)cc1,inactive: 9.84%
19,O=C(Nc1ncnc2sc3c(c12)CCC3)c1ccco1,inactive: -0.512%
20,Cc1noc(C)c1COc1ccccc1C(=O)NNC(=O)c1ccccc1F,inactive: 3.08%
21,O=C(Nc1ccc(Br)c(Cl)c1)c1ccco1,inactive: -0.339%
22,O=[N+]([O-])c1ccc(/C=C/c2ccc3cccc([N+](=O)[O-])c3n2)cc1,inactive: -16.5%
23,COc1ccc([N+](=O)[O-])cc1NC(=O)c1ccco1,inactive: 6.58%
24,O=c1oc2ccc(Cl)cc2nc1/C=C(\O)c1cccs1,inactive: -4.12%

# Sorted by length of the SMILES (ascending): 3 of the compounds above
row,SMILES,"activity change, negative = cytotoxicity"
21,O=C(Nc1ccc(Br)c(Cl)c1)c1ccco1,inactive: -0.339%
5,Cc1cc(C)c(C#N)c(OCC(=O)c2ccc(Br)cc2)n1,inactive: -7.99%
1,Cc1ccc(-c2cc(-c3cccc(F)c3)n[nH]2)c(O)c1,inactive: -26.4%

# Later entries:

row,SMILES,"activity change, negative = cytotoxicity"
1,O=[N+]([O-])c1cccc(-c2cn(-c3ccccc3)c(=S)[nH]2)c1,inactive: 2.98%
2,COC(=O)c1cc2c(s1)-c1cc(F)ccc1OC2,inactive: 7.69%
3,CSc1ccccc1NC(=O)c1cc(-c2cccs2)on1,inactive: -1.28%
4,CS(=O)(=O)Cc1nc2ccccc2oc1=O,inactive: 6.42%
5,O=C(c1nn2c(C(F)(F)F)cc(-c3ccco3)nc2c1Br)N1CCCc2ccccc21,inactive: -15%
6,O=C(Nc1ncnc2sc3c(c12)CCCCC3)c1ccco1,inactive: 7.98%
7,Cn1c(NCC2CCCCC2)nc2cc(-c3ccsc3)sc2c1=O,inactive: 2.56%
8,FC(F)(F)c1cc(-c2ccco2)nc(-n2nnc3ccccc32)n1,inactive: -9.04%
9,O=C(Nc1ccccc1O)c1cccc(NC(=O)c2ccco2)c1,inactive: 8.6%
10,COc1ccc(Cl)cc1C(=O)O/N=C(\N)c1ccncc1,inactive: 1.39%
11,O=C(CCNc1cc(Cl)cc(Cl)c1)c1cccs1,inactive: -3.32%
12,Cc1ccc2cc3c(NC(=O)c4ccco4)nn(C)c3nc2c1,inactive: 4.44%
13,COc1cc(/C=C/c2ccc3cccc(O)c3n2)cc(OC)c1OC,inactive: -18.9%
14,S=c1[nH]nc(-c2ccco2)n1/N=C/c1ccccc1,inactive: 5.36%
15,COc1ccc(C(=O)NCC(=O)N/N=C/C(C)=C/c2ccco2)cc1OC,inactive: 4.64%
16,CC(=O)Nc1nc2cccc([N+](=O)[O-])c2s1,inactive: 0.137%
17,c1cncc(-c2noc(-c3cccc4ccccc34)n2)c1,inactive: -0.825%
18,O=C(Nc1cccc([N+](=O)[O-])c1)c1[nH]ncc1Cl,inactive: -11.2%
19,O=c1[nH]n(Cc2ccccc2)c(=O)c2ccccc12,inactive: 4.35%
20,C/C(=N\Nc1ccccn1)c1cccs1,inactive: 5.06%
21,C/C(=N\NC(=O)c1c[nH]c2ccccc12)c1ccco1,inactive: 3.92%
22,O=C1N/C(=N\N=C\c2ccco2)SC1Cc1ccc(F)cc1 (stereo not given),inactive: -10.6%
23,Cc1cccc2nc3c(nc12)-c1ccccc1C3=O,inactive: -6.85%
24,COc1ccc(OC)c(NC(=O)C(C#N)=Cc2ccco2)c1,inactive: 2.46%

# Reformatted with bars between the fields: entries from further up.
row | SMILES | activity change, negative = cytotoxicity
2 | O=C(N/N=C/c1c(O)ccc2ccccc12)Nc1ccccc1 | inactive: -22.3%
13 | COc1ccccc1C=Cc1ccnc2ccccc12 | inactive: 1.67%
7 | N#Cc1c(-c2ccco2)cc(-c2ccccc2)[nH]c1=O | inactive: 6.52%

# Reference: PubChem BioAssay AID651595 (National Center for Advancing Translational Sciences (NCATS), 2012)
